The text below walks through data of patent US4358440A (Takeda Chemical Industries, Ltd., priority 1980, dated 1982).

Where “and” joins values, the source holds several entries; their conditions need not be identical. Equal values may be shown once. *: point of attachment. Cbz = O=C(OCc1ccccc1)*; Boc = CC(C)(C)OC(=O)*; OtBu = CC(C)(C)O*; NHNH2 = NN*

One series can be described thus: general procedure: solution-phase peptide synthesis; HONB active esters (ONB), DCC/HONB, azide method. As to conditions: coupling step.
Boc-YGGFMK(Boc)P-OtBu displayed a step yield of 85.7%.

Substance “Boc-YGGFMK(Boc)PYTK(Boc)QSHK(Boc)PLITLLK(Boc)HITLK(Boc)NE(OtBu)Q-OtBu” registered a step yield of 84.0%.

In turn, Cbz-K(Boc)HIT-OH registered a step yield of 46.6%.

In turn, Cbz-K(Boc)NE(OtBu)Q-OtBu yielded a step yield of 79.2%.

Cbz-LITLLK(Boc)HITLK(Boc)NE(OtBu)Q-OtBu: the step yield stood at 78.2%.

Cbz-LK(Boc)HIT-OH: the step yield is listed as 65.0%.

Substance Cbz-LK(Boc)NE(OtBu)Q-OtBu showed a step yield of 81.2%.

Substance Cbz-LLK(Boc)HIT-OH displayed a step yield of 75.0%.

As to Cbz-LLK(Boc)HITLK(Boc)NE(OtBu)Q-OtBu, the step yield is reported as 75.4%.

Take Cbz-TK(Boc)QS-OMe: the step yield was found to be 90.6%.

The substance Cbz-YTK(Boc)QS-OMe yielded a step yield of 95.4%.

The substance Cbz-YTK(Boc)QSHK(Boc)P-OH returned a step yield of 57.3%.

Substance “Cbz-YTK(Boc)QSHK(Boc)PLITLLK(Boc)HITLK(Boc)NE(OtBu)Q-OtBu” registered a step yield of 99%.

As to Z-Tyr-Gly-Gly-Phe-Met(O)-OH, the step yield is 50.1%.

The same series, now with this note: late stage modification step.
In turn, Boc-Tyr-Gly-Gly-Phe-Met-OH registered a step yield of 68.7%.

Regarding Boc-YGGFMK(Boc)P-OH, the step yield came to 90.9%.

As for Cbz-YTK(Boc)QS-NHNH2, the step yield stood at 86.5%.

The same series, now with this note: late stage modification step; run 1.
In the case of H-Tyr-Gly-Gly-Phe-Met-OH, the step yield amounted to 78.9%.

The series is the same for the next values; noted with them: late stage modification step; run 2.
H-Tyr-Gly-Gly-Phe-Met-OH returned a step yield of 100%.

Still in this series, the particulars now being: purification step; run 1.
With H-Tyr-Gly-Gly-Phe-Met-OH, the step yield is 93.2% and 84.1%.
